According to PubChem BioAssay AID328 (DTP/NCI, 2004):
The list is a part of this screen's results and no random one: it is rich in T/C values a quarter to a half above the control, in often repeated tests (any T/C) and in doses without a T/C. Further doses and runs are listed elsewhere. T/C is the treated group as % of the vehicle group. Some entries give survivors of the animals treated and no T/C: the source files T/C as zero there, which appears to mark a toxic dose or a test without result, not a measured value. Some doses without a T/C left all or most animals alive at the check, yet need not have been tolerated: the source hardly ever lists a survival T/C far under the control, and the zero likely stands for such cases as well. Survivors were counted at the toxicity check, usually on the fifth day, unless a day is given; later deaths do not show. Schedule codes are those of the source, taken here to give the interval after Q, in days (D) or hours (H), and the number of doses after X. Some entries hold several experiments; their values stand side by side, smallest first. Some structures stand for samples that the source files as different forms (salt, stereo form or complex); doses refer to the form tested. Brackets with × stand for listed records that agree. Where survival is the endpoint, this PubChem deposit counts one and a half times the control or more as active, and values a quarter to a half above the control carry no call in these data; other NCI protocols may use other cut-offs. Some T/C values are followed by the survivors on the day toxicity was checked, most often the fifth; where none is given, no animal had died by that day.

System: BDF1 mice, P388 leukemia ip, median survival T/C
Assay: NCI In Vivo Anticancer Drug Screen. Data for tumor model P388 Leukemia (intraperitoneal) in B6D2F1 (BDF1) mice
Settings: T/C endpoint: median survival time, higher T/C = longer survival
In short: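 Mice carrying the transplantable tumour receive compound or vehicle. Survival is followed in each arm, and the treated measure is divided by the vehicle measure.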

[1] = dose: 200.0 mg/kg/injection, schedule: Q04DX003 (ip), vehicle: saline with Tween-80
[2] = dose: 200.0 mg/kg/injection, schedule: Q04DX003 (ip), vehicle: saline
[3] = dose: 400.0 mg/kg/injection, schedule: Q04DX003 (ip), vehicle: saline
[4] = dose: 6.25 mg/kg/injection, schedule: Q01DX009 (ip), vehicle: saline with Tween-80
[5] = dose: 12.5 mg/kg/injection, schedule: Q01DX009 (ip), vehicle: saline with Tween-80
[6] = dose: 100.0 mg/kg/injection, schedule: Q01DX009 (ip), vehicle: saline
[7] = dose: 400.0 mg/kg/injection, schedule: Q01DX009 (ip), vehicle: Klucel (hydroxypropylcellulose) (HPC)
[8] = dose: 400.0 mg/kg/injection, schedule: Q01DX001 (ip), vehicle: saline with Tween-80
[9] = dose: 50.0 mg/kg/injection, schedule: Q01DX009 (ip), vehicle: saline
[10] = dose: 100.0 mg/kg/injection, schedule: Q04DX003 (ip), vehicle: saline
[11] = dose: 150.0 mg/kg/injection, schedule: Q04DX003 (ip), vehicle: saline

SMILES: O=C1C=C2C(=CCOC2O)O1 (stereo unspecified)
- T/C (dose: 0.3 mg/kg/injection, schedule: Q01DX009 (ip), vehicle: other): 131 % of control
- T/C (dose: 1.0 mg/kg/injection, schedule: Q01DX009 (ip), vehicle: other): 141 % of control
- survivor count (dose: 10.0 mg/kg/injection, schedule: Q01DX009 (ip), vehicle: other): 0 of 6

SMILES: Cc1ccccc1-c1nc2cc(Cl)ccc2c(=O)o1
- survivor count [1]: 3 of 6
- survivor count (dose: 400.0 mg/kg/injection, schedule: Q04DX003 (ip), vehicle: saline with Tween-80): 0 of 6

SMILES: C(CC1CO1)C1CO1 (stereo unspecified)
- T/C (dose: 33.0 mg/kg/injection, schedule: Q01DX009 (ip), vehicle: saline): 146 % of control
- T/C (dose: 44.0 mg/kg/injection, schedule: Q04DX003 (ip), vehicle: saline): 140 % of control
- survivor count [2]: 1 of 6
- survivor count [3]: 0 of 6

SMILES: CC1(C)C2CCC([CH2][Hg][Cl])C1C2 (stereo unspecified)
- T/C [4]: 125 % of control [5 of 6 alive]
- T/C [5]: 130 % of control

SMILES: CCC(CC)c1ccccn1
- survivor count (dose: 400.0 mg/kg/injection, schedule: Q01DX009 (ip), vehicle: carboxymethylcellulose (CMC)): 2 of 6

SMILES: COc1cccc2c1C(=O)c1c(O)c3c(c(O)c1C2=O)C[C@@](O)(/C(C)=N/NC(=O)c1ccc(N(C)C)cc1)C[C@@H]3OC1CC(N)C(O)C(C)O1 (stereo partly specified)
- T/C (dose: 0.25 mg/kg/injection, schedule: Q01DX009 (ip), vehicle: water): 127 % of control
- T/C (dose: 4.0 mg/kg/injection, schedule: Q01DX009 (ip), vehicle: water): 137 % of control

SMILES: [NH-]C(CO)C(=O)O.[NH-]C(CO)C(=O)O.[Pd+2] (stereo unspecified)
- T/C (dose: 25.0 mg/kg/injection, schedule: Q01DX009 (ip), vehicle: water): 132 % of control
- T/C (dose: 50.0 mg/kg/injection, schedule: Q01DX009 (ip), vehicle: water): 130 % of control
- survivor count (dose: 100.0 mg/kg/injection, schedule: Q01DX009 (ip), vehicle: water): 4 of 6

SMILES: COc1cc2c(cc1OC)CC[N+](C)=C2
- T/C (dose: 25.0 mg/kg/injection, schedule: Q04DX003 (ip), vehicle: saline): 130 % of control
- survivor count [6]: 2 of 6
- survivor count (dose: 200.0 mg/kg/injection, schedule: Q01DX009 (ip), vehicle: saline): 0 of 6

SMILES: BrC1C2CCC(CC2)C1Br (stereo unspecified)
- survivor count [7]: 6 of 6

SMILES: CCN(CC)CCCC(C)NC(=O)c1ccc2c(c1)C(=O)c1ccccc1C2=O (stereo unspecified)
- T/C (dose: 200.0 mg/kg/injection, schedule: Q01DX005 (ip), vehicle: saline): 127 % of control

SMILES: Cc1ccc(NCN2C(=O)NC(c3ccccc3)(c3ccccc3)C2=O)cc1
- survivor count [8]: 3 of 5

SMILES: O=[As]O
- survivor count (dose: 16.0 mg/kg/injection, schedule: Q01DX009 (ip), vehicle: saline): 4 of 6
- survivor count (dose: 32.0 mg/kg/injection, schedule: Q01DX009 (ip), vehicle: saline): 0 of 6

SMILES: O=c1cc(O)ccn1CCc1cccs1
- survivor count (dose: 50.0 mg/kg/injection, schedule: Q01DX009 (ip), vehicle: saline with Tween-80): 3 of 6

SMILES: CN(CCCl)Cc1ccccc1
- T/C [9]: 145 % of control
- survivor count [6]: 1 of 6
- T/C [10]: 147 [5 of 6 alive], 155, 159, 270 % of control
- survivor count [11]: 4 of 6
- survivor count [2]: 2 of 6 and 4 of 6

SMILES: Cc1cc(C)c(N)c(Br)c1
- survivor count (dose: 200.0 mg/kg/injection, schedule: Q04DX003 (ip), vehicle: other): 1 of 6
- survivor count (dose: 400.0 mg/kg/injection, schedule: Q04DX003 (ip), vehicle: other): 0 of 6

SMILES: CN1CCN(CCCN2c3ccccc3Sc3ccc(C(F)(F)F)cc32)CC1
- T/C (dose: 18.75 mg/kg/injection, schedule: Q01DX009 (ip), vehicle: saline): 127 % of control
- survivor count (dose: 25.0 mg/kg/injection, schedule: Q01DX009 (ip), vehicle: saline): 6 of 6 (2×)
- survivor count (dose: 37.5 mg/kg/injection, schedule: Q01DX009 (ip), vehicle: saline): 5 of 7
- T/C (dose: 37.5 mg/kg/injection, schedule: Q04DX003 (ip), vehicle: saline with Tween-80): 134 % of control
- T/C (dose: 37.5 mg/kg/injection, schedule: Q04DX003 (ip), vehicle: saline): 130 % of control
- survivor count [9]: 3 of 6 (2×)
- T/C (dose: 66.0 mg/kg/injection, schedule: Q04DX003 (ip), vehicle: saline with Tween-80): 141 and 145 % of control
- survivor count (dose: 67.0 mg/kg/injection, schedule: Q01DX009 (ip), vehicle: saline with Tween-80): 3 of 5
- survivor count (dose: 75.0 mg/kg/injection, schedule: Q01DX009 (ip), vehicle: saline): 0 of 7
- T/C (dose: 75.0 mg/kg/injection, schedule: Q04DX003 (ip), vehicle: saline with Tween-80): 126 % of control
- survivor count (dose: 100.0 mg/kg/injection, schedule: Q01DX009 (ip), vehicle: saline with Tween-80): 0 of 6
- survivor count [6]: 1 of 6
- T/C (dose: 100.0 mg/kg/injection, schedule: Q04DX003 (ip), vehicle: saline with Tween-80): 141 % of control
- survivor count (dose: 150.0 mg/kg/injection, schedule: Q04DX003 (ip), vehicle: saline with Tween-80): 1 of 6 and 4 of 6
- survivor count [11]: 2 of 6
- survivor count [1]: 3 of 6

SMILES: CCOC(=O)Nc1cc2c(c(N)n1)N=C(c1ccccc1)CN2
- T/C (dose: 2.0 mg/kg/injection, schedule: Q04DX003 (ip), vehicle: saline with Tween-80): 126 % of control
- T/C (dose: 4.5 mg/kg/injection, schedule: Q04DX003 (ip), vehicle: saline with Tween-80): 142 % of control

SMILES: COCc1ccc([N+](=O)[O-])cc1
- survivor count (dose: 200.0 mg/kg/injection, schedule: Q01DX001 (ip), vehicle: saline with Tween-80): 6 of 6
- survivor count [8]: 6 of 6

SMILES: Nc1nc(N)c2cc(NCc3ccccc3Cl)ccc2n1
- T/C [4]: 131 % of control
- T/C [5]: 145 % of control
- T/C (dose: 25.0 mg/kg/injection, schedule: Q01DX009 (ip), vehicle: saline with Tween-80): 145 % of control
- survivor count (dose: 35.0 mg/kg/injection, schedule: Q01DX009 (ip), vehicle: Klucel (hydroxypropylcellulose) (HPC)): 1 of 6
- survivor count (dose: 37.5 mg/kg/injection, schedule: Q04DX003 (ip), vehicle: Klucel (hydroxypropylcellulose) (HPC)): 2 of 6
- survivor count (dose: 55.0 mg/kg/injection, schedule: Q01DX009 (ip), vehicle: Klucel (hydroxypropylcellulose) (HPC)): 0 of 6
- survivor count (dose: 75.0 mg/kg/injection, schedule: Q04DX003 (ip), vehicle: Klucel (hydroxypropylcellulose) (HPC)): 0 of 6
- survivor count (dose: 80.0 mg/kg/injection, schedule: Q01DX009 (ip), vehicle: Klucel (hydroxypropylcellulose) (HPC)): 1 of 6

SMILES: CC1CN1P(=O)(OCCCl)N1CC1C (stereo unspecified)
- T/C [10]: 127 % of control
- T/C [2]: 136 % of control
- survivor count [3]: 4 of 6

SMILES: NC(=S)N/N=C/C(=N\NC(N)=S)C(O)C(O)C(O)CO (stereo unspecified)
- survivor count (dose: 200.0 mg/kg/injection, schedule: Q04DX003 (ip), vehicle: saline sonified): 3 of 6
- survivor count (dose: 400.0 mg/kg/injection, schedule: Q04DX003 (ip), vehicle: saline sonified): 1 of 6

SMILES: OCCOCC(F)(F)F
- survivor count (dose: 200.0 mg/kg/injection, schedule: Q01DX009 (ip), vehicle: saline with Tween-80): 6 of 6
- survivor count (dose: 400.0 mg/kg/injection, schedule: Q01DX009 (ip), vehicle: saline with Tween-80): 6 of 6

SMILES: CCNc1nc(Cl)nc(-c2cn(-c3ccccc3)c3ccccc23)n1
- survivor count (dose: 200.0 mg/kg/injection, schedule: Q01DX009 (ip), vehicle: Klucel (hydroxypropylcellulose) (HPC)): 6 of 6
- survivor count [7]: 6 of 6

SMILES: CC(CCC(=O)NC12CC3CC(CC(C3)C1)C2)C1CCC2C3C(OC=O)CC4CC(OC=O)CCC4(C)C3CC(OC=O)C12C (stereo unspecified)
- survivor count (dose: 100.0 mg/kg/injection, schedule: Q04DX002 (ip), vehicle: saline with Tween-80): 6 of 6
